Results on 2 molecules are retold here after paper PMC8881624.

Amino acid sequences for entries named in this document (tags omitted). A change or cut given only in a name is not applied to a line headed by its entry.
UniProt Q9USL2: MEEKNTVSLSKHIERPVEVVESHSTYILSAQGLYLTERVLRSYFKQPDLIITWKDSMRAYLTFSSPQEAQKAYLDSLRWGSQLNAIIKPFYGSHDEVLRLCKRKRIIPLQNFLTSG

Results are given in words; binding and its absence hold for the method and conditions named. In cells and extracts the contact can be indirect. A result given as binding can be weak or reduced; the word gives no strength. Tags and fused reporters may be left off the sequences shown.

One test addresses T1, 3xFLAG-Pof8 (S. pombe) (UniProt O13795).
T1 sequence: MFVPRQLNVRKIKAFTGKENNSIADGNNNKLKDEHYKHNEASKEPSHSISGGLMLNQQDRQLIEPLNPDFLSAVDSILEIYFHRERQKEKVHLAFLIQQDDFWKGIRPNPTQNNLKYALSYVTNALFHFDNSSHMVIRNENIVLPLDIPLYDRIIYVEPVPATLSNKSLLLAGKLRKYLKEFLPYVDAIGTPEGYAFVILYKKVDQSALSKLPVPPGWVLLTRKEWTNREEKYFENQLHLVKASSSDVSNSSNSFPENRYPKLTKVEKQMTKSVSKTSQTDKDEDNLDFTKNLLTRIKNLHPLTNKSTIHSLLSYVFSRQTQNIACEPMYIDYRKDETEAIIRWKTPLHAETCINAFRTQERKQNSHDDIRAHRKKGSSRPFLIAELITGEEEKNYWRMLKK
Put plainly: co-IP; S. pombe cell-free extract in TMG(300), antibody-coated protein G Dynabeads (anti-FLAG, anti-V5 or anti-c-Myc), 4 h at 4 °C, western blot; beads also treated with RNase A or Benzonase (15 min, 37 °C); Pof8-Thc1 also in bmc1Δ background. A general note: In western blotting, separated proteins are transferred to a membrane and probed.

For another test, the target named is T2, Lsm4-cMyc (S. pombe) (UniProt O14352).
T2 sequence: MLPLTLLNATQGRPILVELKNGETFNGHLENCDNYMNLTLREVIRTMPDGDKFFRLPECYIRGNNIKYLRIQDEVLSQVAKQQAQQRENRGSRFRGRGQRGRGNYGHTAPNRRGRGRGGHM
The description is as above.

Test [1] has as its target 6xHis-Thc1 (recombinant) (S. pombe). Briefly: pull-down; 6xHis-Thc1 and untagged Pof8 co-expressed in E. coli, cleared lysate on Ni-NTA beads (50 mM sodium phosphate pH 8.0, 300 mM NaCl, 10% glycerol; wash 40 mM imidazole, elution 250 mM imidazole), Coomassie-stained SDS-PAGE.

Thc1-2xV5 (from UniProt Q9USL2): the binding entry in the test with 3xFLAG-Pof8 (S. pombe) and with Lsm4-cMyc (S. pombe) was “binds” each time.

B1: untagged Pof8 (recombinant) (protein, UniProt O13795 1-402)
chain: T1 sequence
Take B1: in test [1], the binding entry is reported as “binds”.
